Test results: paper PMC11324738
These are yes or no findings as the source states them, for the method shown. Binding seen in cells or lysates may run through a third protein. Some entries that bind do so weakly or less than the wild type.

By UniProt entry, the sequences of proteins in these tests, tags left out.
UniProt Q13585: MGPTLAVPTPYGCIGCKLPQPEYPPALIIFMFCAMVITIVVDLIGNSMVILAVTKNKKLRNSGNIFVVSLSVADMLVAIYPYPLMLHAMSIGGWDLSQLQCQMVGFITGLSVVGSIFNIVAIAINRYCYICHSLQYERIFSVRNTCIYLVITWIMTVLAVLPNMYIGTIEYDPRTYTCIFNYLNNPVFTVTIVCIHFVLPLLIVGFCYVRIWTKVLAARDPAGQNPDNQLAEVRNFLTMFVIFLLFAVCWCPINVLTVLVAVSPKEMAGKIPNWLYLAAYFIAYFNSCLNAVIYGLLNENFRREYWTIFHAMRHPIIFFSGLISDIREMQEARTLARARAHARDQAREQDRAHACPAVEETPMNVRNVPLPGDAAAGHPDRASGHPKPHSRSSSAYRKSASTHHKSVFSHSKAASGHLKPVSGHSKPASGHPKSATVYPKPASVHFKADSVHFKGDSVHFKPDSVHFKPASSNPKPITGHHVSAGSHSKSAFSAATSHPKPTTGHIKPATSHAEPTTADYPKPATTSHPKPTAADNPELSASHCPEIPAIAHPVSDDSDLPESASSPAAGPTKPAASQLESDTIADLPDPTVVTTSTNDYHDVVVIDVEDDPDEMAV

Biological target: GPR50-V1 and GPR50-V2 homodimer (GPR50 fused to the V1 or V2 segment of Venus, BiCAP bait) (human) (UniProt Q13585)
Assay: split reporter; Venus segments V1 and V2 fused to GPR50, co-transfected in HEK 293T; the complemented homodimers captured with GFP-trap beads

- binding: binds
Substance: GPR50-V1 and GPR50-V2 homodimer (GPR50 fused to the V1 or V2 segment of Venus, BiCAP bait) (from UniProt Q13585 1-617) (receptor)
